The source of these data is PubChem BioAssay AID1487 (National Center for Advancing Translational Sciences (NCATS), 2009).

A short description of the assay: qHTS Assay for Modulators of Lamin A Splicing. The following applies: HeLa LMNA splicing GFP/RFP minigene ratio, 48 h. In outline:
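S3 HeLa cells stably expressing lamin A-EGFP splicing minigene plus DsRed2, 600 cells/well, 48 h compound exposure at 37C. Laser-scanning cytometry; analysed as GFP (500-530 nm)/RFP (575-640 nm) total intensity ratio; 0.5% DMSO vehicle.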
For orientation: Quantitative high-throughput screening tests each substance at several concentrations.

[1] abbreviates: measured here: GFP splicing reporter channel.
The mark [2] stands for this setting: measured here: RFP viability control channel.

SMILES strings stand for the structures. “And” between values parts separate entries of the source, which are not always exact repeats. Equal values may be shown once. This is one part of the list. These are further read-outs of the screen, such as a control signal, another cell line or another target. No call is given for them. Most of these compounds were active or inconclusive in the main read-out, so they are no random draw. The note in brackets gives the kind of curve behind each potency; many fits are weak.

As a reminder, the AC50 is the concentration giving half of the maximal activity seen. As for `CCCCOc1cc(C(=O)NCCN(CC)CC)c2ccccc2n1`, the AC50 by setting is: under setting [1], 8.91 nM [falling, full curve, poor fit] and 708 nM [rising, single point]; under setting [2], 0.00708 µM [falling, full curve, poor fit].

Regarding `CC(=O)c1ccc(NC(=O)COC(=O)c2ccccc2N=Nc2ccc(N(C)C)cc2)cc1`, under setting [2], the AC50 is 12.6 µM [rising, partial curve].

Regarding `Cc1ccc(NC(=O)/C=C/c2ccc(Cl)cc2)nc1`, the AC50 was 3.16 µM [falling, partial curve] under setting [1] and 2.24 µM [falling, partial curve, poor fit] under setting [2].

In the case of `Cc1ccccc1NC(=S)N1CCC(NC(=O)c2ccco2)CC1`, the AC50 under setting [1] is 0.447 µM [rising, single point].

`O=[N+]([O-])c1ccc(Oc2c(F)c(F)nc(N3CCCC3)c2F)cc1`: the AC50 reads like this: under setting [1], 20 µM [rising, single point]; under setting [2], 35.5 µM [rising, single point].

Regarding `CC1CC(C)CN(c2ccc(C(=O)NCc3ccc4c(c3)OCO4)cc2[N+](=O)[O-])C1` (stereo not drawn), the AC50 reads like this: under setting [1], 14.1 µM [rising, single point]; under setting [2], 15.8 µM [rising, single point].

On to `O=c1c2ccccc2c(C=NCc2ccccn2)c(O)n1-c1ccccc1`, for which the AC50 is, setting by setting: under setting [1], 10 µM [rising, partial curve]; under setting [2], 12.6 µM [rising, partial curve].

Regarding `O=C(c1cc2sccc2n1Cc1ccc(F)cc1)N1CCN(c2nc3ccccc3s2)CC1`, the half-maximal activity concentration (AC50) under setting [2] is 2.82 µM [rising, full curve].

Consider `CC(C)(C)OC(=O)N/N=C/c1ccc(N2CCOCC2)s1`, for which the AC50 runs as follows: under setting [1], 1.58 µM [falling, partial curve]; under setting [2], 2.51 µM [falling, partial curve].

For `COc1cc(CC(=O)Nc2ccc3c(c2)CCC3)cc(OC)c1OC`, the AC50 is, setting by setting: under setting [1], 0.562 µM [rising, full curve, poor fit]; under setting [2], 17.8 µM [rising, partial curve].

For the molecule `Cc1ccc(C)c(SCC(=O)Nc2nnc(-c3ccccc3)o2)c1`, the AC50 under setting [2] was 35.5 µM [rising, single point].

With `COc1cccc(CC2CC(=O)N(c3ccc4c(C)cc(=O)oc4c3)C2=O)c1` (stereo not drawn), the AC50 is 22.4 µM [rising, partial curve, poor fit] under setting [1] and 12.6 µM [rising, partial curve, poor fit] under setting [2].

As to `O=C(NCCCl)NNc1c(Cl)cc(Cl)cc1Cl`, the concentration at half-maximal activity (AC50) runs as follows: under setting [1], 1.26 µM [rising, single point]; under setting [2], 1.26 µM [rising, single point].

Regarding `O=S(=O)(c1ccc(NC(=S)NCc2cccnc2)cc1)N1CCCCC1`, the AC50 under setting [1] was 3.16 µM [rising, full curve, poor fit].
